# Library screening results

Protein sequences, listed by entry. Tags and fused reporters are not part of them.
UniProt E9BF75, entry or part of it: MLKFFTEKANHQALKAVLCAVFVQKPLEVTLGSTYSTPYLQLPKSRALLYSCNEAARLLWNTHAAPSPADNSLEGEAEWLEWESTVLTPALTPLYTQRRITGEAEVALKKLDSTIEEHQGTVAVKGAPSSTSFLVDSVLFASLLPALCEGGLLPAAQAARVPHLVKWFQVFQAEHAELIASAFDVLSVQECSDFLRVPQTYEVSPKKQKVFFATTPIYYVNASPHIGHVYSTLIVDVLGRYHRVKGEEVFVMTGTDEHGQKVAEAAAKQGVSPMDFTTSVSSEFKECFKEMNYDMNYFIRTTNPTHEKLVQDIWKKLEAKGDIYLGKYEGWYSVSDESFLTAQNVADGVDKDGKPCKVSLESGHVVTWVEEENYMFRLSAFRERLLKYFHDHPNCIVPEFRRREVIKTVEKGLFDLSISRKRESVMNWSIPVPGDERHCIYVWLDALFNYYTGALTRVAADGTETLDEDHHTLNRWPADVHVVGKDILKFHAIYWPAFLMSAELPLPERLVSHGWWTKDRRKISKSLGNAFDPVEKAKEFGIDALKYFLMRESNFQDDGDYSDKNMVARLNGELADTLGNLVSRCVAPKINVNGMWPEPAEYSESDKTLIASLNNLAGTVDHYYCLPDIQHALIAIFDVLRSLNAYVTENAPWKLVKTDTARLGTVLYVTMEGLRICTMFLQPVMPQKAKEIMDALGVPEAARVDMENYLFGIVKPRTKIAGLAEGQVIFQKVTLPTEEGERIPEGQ

Measurements from “University of Dundee, Small-Polar-MMV Screening Library” (2021), ChEMBL document CHEMBL3988442.

A: 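Primary screen of methionyl-tRNA synthetase; the read-out is not stated. Target: Methionyl-tRNA synthetase (putative), Leishmania donovani (UniProt E9BF75). The test concentration is not given. The values are filed as inhibition. About 68,000 compounds were tested under these conditions; 0.035% (about 24) showed 50% or more at least once.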
B: 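Assay on Mycobacterium tuberculosis, filed only as a heat shock assay from Cornell; the read-out is not stated. The concentration is filed as 10 mM, unlikely as a test dose, so the dose is not known. Direction is inferred from retests: higher values go with stronger inhibition. Of about 69,000 compounds tested this way, about 930 (1.4%) reached 50% or more in at least one test.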

All values are in %.
How 0% and 100% were set is not recorded. Most values in the screen are low, and negative values occur.
This is an unselected part of the compounds tested.
A dash means the value is not listed here; it may have been measured.

| structure | A | B |
|---|---|---|
| `CN(CC(O)C(F)(F)F)C(=O)Nc1cccc(Cn2cccn2)c1` (centres undefined) | 10.89 | -0.3653 |
| `[H][C@]12CC[C@]([H])(CN(c3nc(C)nc4sccc34)C1)[C@@H]2OC` | - | 11.05 |
| `c1cncc(CN2C[C@H]3CCC[C@@H](CNc4cnccn4)[C@H]3C2)c1` | 9.934 | - |
| `Cc1cc(C[S+]([O-])Cc2ccccc2C)no1` (centres undefined) | 14.85 | 9.195 |
| `Cc1nc(C2CCCN(C(=O)Cn3ccccc3=O)C2)sc1C` (centres undefined) | 16.2 | -5.961 |
| `COc1ccc(OCCCN2CCOC(Cn3cccn3)C2)cc1` (centres undefined) | 11.11 | -4.495 |
| `O=C(O)C(c1ccc2c(c1)OCO2)N1CCCCCC1` (centres undefined) | 7.821 | -5.625 |
| `CCc1ncc(CN(C)C2CCN(c3sccc3C#N)C2=O)s1` (centres undefined) | 11.78 | -29.54 |
| `COc1cc(NCC(O)CN2CCCCCC2)ncn1` (centres undefined) | 16.09 | 1.378 |
| `Cc1noc(C)c1C(=O)NCC1CCCCN1Cc1ccccc1` (centres undefined) | 15.04 | -20.93 |
| `Cc1cc(NCCN)nc2ccccc12` | 9.006 | - |
| `Cc1nc(NC(=O)CN2CCOC(Cn3cccn3)C2)sc1C` (centres undefined) | 15.46 | 2.548 |
| `O=C1CCC2(CCN(Cc3cscn3)CC2)CN1CCCO` | 3.361 | -6.903 |
| `Cn1cc(CN2C[C@@H]3COC[C@]3(CNC(=O)c3ccco3)C2)cn1` | 21.98 | - |
| `C[C@@H]1CN(C2CCOC2)C[C@]12CCN(c1cccnc1)C2=O.O=C(O)C(F)(F)F.O=C(O)C(F)(F)F` (some centres undefined) | - | -15.93 |
| `Cc1cnc(CNC(=O)CC2CCc3ccccc32)cn1` (centres undefined) | 10.88 | -16.18 |
| `O=C(O)C(F)(F)F.[H][C@@]12CCN(Cc3ccccc3)C[C@]1(C(=O)N1CCCO1)CCO2` | - | -1.67 |
| `Cc1cccc(=O)n1CCC(=O)N1CC[C@](C)(O)[C@H](C)C1` | 10.47 | -0.05946 |
| `CC(C)(C)c1cc(CN2CCOC(CN)C2)n[nH]1` (centres undefined) | 2.256 | -20.51 |
| `CCOc1cccc2c1OCC(C(=O)NS(=O)(=O)c1ccc(C)s1)=C2` | -1.307 | 8.661 |
| `CC(=O)c1c(C)nn(CC(=O)N2Cc3cnc(C(C)(C)C)nc3C2)c1C` | 21.77 | -23.94 |
| `CCCn1ccnc1CN1CC[C@@H](NC(=O)c2cccnc2)[C@H](O)C1` | 12.18 | -9.083 |
| `COCCN1CCO[C@@H]2CN(C(=O)NCc3ccccc3)CC[C@@H]2C1` | 6.266 | - |
| `O=C1N(Cc2ccccn2)C[C@H]2CN(C3CCC3)CCN12` | 10.53 | - |
| `COc1cnc(N2C[C@@H](CN3CCOCC3)C[C@H](CO)C2)nc1` | 7.94 | 4.993 |
| `CNc1cncc(C2CCN(C(=O)c3coc(C)n3)CC2)n1` | 13.52 | -4.292 |
| `NC(=O)CNC(c1ccccc1)c1ccc(OC(F)F)cc1` (centres undefined) | 4.805 | 10.4 |
| `Cc1nccn1-c1ccc(C(C)NCc2ncc[nH]2)cc1` (centres undefined) | 21.47 | 3.701 |
| `O=C(c1ccoc1)N1C[C@@H]2OCCN(c3ncccn3)[C@@H]2C1` | 2.466 | - |
| `CCc1nc(C)c(C2CC(=O)Nc3c2c(-c2cccnc2)nn3C)[nH]1` (centres undefined) | 12.89 | 0.9096 |
| `COc1ccc(OC2CCN(Cc3ccn(C)c(=O)c3)CC2)cc1` | 16.24 | -13.25 |
| `[H][C@@]12CCN(C[C@@H]1c1cc(-c3cccs3)nn1C)[C@@H](CNC(=O)NCC)C2` | - | -20.29 |
| `CCn1c(CN2CCN(C(=O)C3CCC3)CC2)nc2c(F)cccc21` | 13.11 | 3.041 |
| `Cc1noc(C)c1NS(=O)(=O)c1cc(C(=O)O)cc(Cl)c1Cl` | 16.99 | -14.31 |
| `CN(C)C(=O)N1CC2(CCN(S(C)(=O)=O)CC2)c2ccccc21` | 7.904 | -13.5 |
| `Cc1cccc2nc(CNCc3cccc4c3OCCCO4)cn12` | 16.09 | 0.5234 |
| `COCCN(Cc1sccc1C)C(=O)c1c(O)cccc1F` | 8.192 | 1.871 |
| `O=C(c1ccc(-n2cccn2)nc1)N1CCCN(c2cccnn2)CC1` | 8.333 | 12.56 |
| `CC(O)CN1CCN(C(=O)CCOc2ccccc2F)CC1` (centres undefined) | 16.72 | -21.55 |
| `O=C(O)C(F)(F)F.O=C(O)C(F)(F)F.[H][C@@]12CN(CC3CC3)CCC[C@]1(C(=O)N(C)C)CN(c1ccccn1)C2` | - | 8.467 |
| `CCc1nc(C2CCCN(C(=O)c3c(C)noc3C)C2)no1` (centres undefined) | 14.36 | -14.05 |
| `CC(C)CCN1C2(CCN(Cc3nccs3)C2)c2ccccc2S1(=O)=O.O=C(O)C(F)(F)F` (centres undefined) | - | 47.98 |
| `COc1cc(-c2n[nH]c(CO)n2)cc(OC)c1OC` | 6.452 | -13.58 |
| `CC(=O)N(C)c1nc(CN2CCCC2Cn2nc(C)cc2C)cs1` (centres undefined) | 16.24 | 14.87 |
| `CC1CCCN(Cc2coc(-c3cccc(F)c3)n2)C1` (centres undefined) | 14.17 | 1.145 |
| `O=C(CCCc1ccccn1)N1CCC(n2cccc2)CC1` | 12.09 | 20.03 |
| `CC(C)N[C@@H]1CO[C@H](CNC(=O)c2ccccc2)[C@H]1O` | 9.774 | -3.923 |
| `CN(C)C(=O)N1CC2(CCN(CC3CC3)CC2)c2cc(F)ccc21` | 2.778 | - |
| `CN1CCN(c2ccc3ccc(C(=O)N4CCCCO4)cn23)CC1` | 12.04 | - |
| `CCCNC(=O)C1CCN(CC2(O)CCC(C)CC2)CC1` (centres undefined) | 5.797 | 8.332 |
| `O=C(C1CCCC1)N1CC2(CCNC2)OCc2ccccc21` (centres undefined) | 12.57 | -25.06 |
| `Cc1nc2c(N3CCN(CCO)CC3)nc(N)nc2n1C` | 15.79 | -11.79 |
| `COCCOc1ccc(CNC2CCc3ncnn3C2)cc1OC` (centres undefined) | 12.31 | 8.75 |
| `Fc1ccc(CCN2CCC(c3nnc(-c4cccnc4)o3)CC2)cc1` | 5.822 | -4.35 |
| `O=C(COc1coc(CN2CCCCC2)cc1=O)c1ccc(Cl)cc1` | 12.24 | 0.2698 |
| `CN(C)Cc1cc(=O)n2c(n1)CN(C(=O)Cc1cccs1)CCC2.O=C(O)C(F)(F)F` | - | -32.87 |
| `O=C(c1cccnc1N1CCN(CCO)CC1)N1CCCC1` | 26.52 | - |
| `CCN(CC)Cc1ccc(C(=O)N2CCCC2Cn2cccn2)cc1` (centres undefined) | 10.48 | 0.5633 |
| `CC(C)c1noc(CCCC(=O)NCCOc2ccccc2)n1` | 0.8021 | -7.429 |
| `Cc1ccc(N2CCC(Nc3ccc4nnc(C)n4n3)CC2)nc1` | 14.8 | -21.04 |
| `CC(C)[C@H]1COC(=O)N1Cc1nccn1C1CC1` | -4.359 | 3.559 |
| `c1nc2c(c(N3CCOCC3)n1)CCNCC2` | 7.104 | 8.159 |
| `COc1cccc2c(C)c(C(=O)N3CCNCC3C(N)=O)[nH]c12` (centres undefined) | 5.901 | - |
| `CCOC1CCN(CC(=O)Nc2oc(C)c3c(C)n[nH]c(=O)c23)CC1` | 1.567 | 3.859 |
| `CC(C)(C)CN(CCC#N)Cn1cc(Cl)cn1` | 5.744 | 16.79 |
| `CC(C)c1cccc(CSc2nnc(CN3CCCC3=O)o2)n1` | 9.756 | 14.72 |
| `CC(C)NC(=O)c1nnn(-c2cccc(F)c2)c1C1CC1` | 16.71 | -10.59 |

Once more, the final 5:

* COc1cccc2c(C)c(C(=O)N3CCNCC3C(N)=O)[nH]c12 (centres undefined) : A: 5.901%
* CCOC1CCN(CC(=O)Nc2oc(C)c3c(C)n[nH]c(=O)c23)CC1 : A: 1.567%; B: 3.859%
* CC(C)(C)CN(CCC#N)Cn1cc(Cl)cn1 : A: 5.744%; B: 16.79%
* CC(C)c1cccc(CSc2nnc(CN3CCCC3=O)o2)n1 : A: 9.756%; B: 14.72%
* CC(C)NC(=O)c1nnn(-c2cccc(F)c2)c1C1CC1 : A: 16.71%; B: -10.59%